According to the supplement of paper PMC12823440, “Inhibitors supercharge kinase turnover through native proteolytic circuits” (Nature, 2025):
Some of the results follow. Hit calls seldom repeat between salt and free forms of one compound.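 Kinases, fused to nanoluciferase, were expressed in K562 cells; luminescence was measured every 4 h from 2 to 18 h as percent of control (DMSO = 100%, positive control = 0%). A time point is decreased if signal falls significantly (2 sigma). Hits were called by the authors by a rule that is not shown; the count of time points alone does not decide it.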

By UniProt entry, the sequences of proteins in these tests, tags left out. Where a name states a change or a piece, a line headed by the entry shows the natural chain unless it says otherwise.
UniProt Q15418, whole entry: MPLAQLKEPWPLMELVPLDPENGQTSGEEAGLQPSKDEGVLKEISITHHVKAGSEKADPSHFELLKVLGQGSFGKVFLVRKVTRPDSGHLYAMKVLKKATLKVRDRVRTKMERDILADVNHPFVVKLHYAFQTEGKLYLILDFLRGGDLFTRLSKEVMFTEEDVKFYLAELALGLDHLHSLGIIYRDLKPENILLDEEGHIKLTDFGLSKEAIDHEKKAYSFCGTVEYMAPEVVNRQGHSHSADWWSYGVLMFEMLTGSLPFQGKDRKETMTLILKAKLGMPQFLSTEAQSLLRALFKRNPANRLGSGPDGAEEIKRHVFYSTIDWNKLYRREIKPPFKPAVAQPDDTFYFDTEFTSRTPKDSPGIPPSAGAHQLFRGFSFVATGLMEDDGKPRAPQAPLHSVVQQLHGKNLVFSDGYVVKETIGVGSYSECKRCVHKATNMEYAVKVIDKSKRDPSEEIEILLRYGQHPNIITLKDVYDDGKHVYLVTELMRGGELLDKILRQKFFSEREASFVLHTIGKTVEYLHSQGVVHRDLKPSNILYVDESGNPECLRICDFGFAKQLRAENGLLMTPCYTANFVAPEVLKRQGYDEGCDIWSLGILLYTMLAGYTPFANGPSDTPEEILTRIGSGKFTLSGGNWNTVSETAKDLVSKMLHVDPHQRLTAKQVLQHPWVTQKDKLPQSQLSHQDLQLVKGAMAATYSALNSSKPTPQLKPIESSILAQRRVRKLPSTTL
UniProt Q9NYA1, whole entry: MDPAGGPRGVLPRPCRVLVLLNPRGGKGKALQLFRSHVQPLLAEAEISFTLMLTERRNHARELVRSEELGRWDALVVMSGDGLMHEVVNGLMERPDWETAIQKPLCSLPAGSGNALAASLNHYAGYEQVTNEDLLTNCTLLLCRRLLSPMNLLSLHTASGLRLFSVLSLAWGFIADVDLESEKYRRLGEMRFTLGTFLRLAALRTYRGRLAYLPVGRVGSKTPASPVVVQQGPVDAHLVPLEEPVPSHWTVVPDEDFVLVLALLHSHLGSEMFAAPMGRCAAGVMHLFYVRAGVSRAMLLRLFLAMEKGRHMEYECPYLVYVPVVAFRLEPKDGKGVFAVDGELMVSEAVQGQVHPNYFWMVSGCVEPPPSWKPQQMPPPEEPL
UniProt Q9Y6E0: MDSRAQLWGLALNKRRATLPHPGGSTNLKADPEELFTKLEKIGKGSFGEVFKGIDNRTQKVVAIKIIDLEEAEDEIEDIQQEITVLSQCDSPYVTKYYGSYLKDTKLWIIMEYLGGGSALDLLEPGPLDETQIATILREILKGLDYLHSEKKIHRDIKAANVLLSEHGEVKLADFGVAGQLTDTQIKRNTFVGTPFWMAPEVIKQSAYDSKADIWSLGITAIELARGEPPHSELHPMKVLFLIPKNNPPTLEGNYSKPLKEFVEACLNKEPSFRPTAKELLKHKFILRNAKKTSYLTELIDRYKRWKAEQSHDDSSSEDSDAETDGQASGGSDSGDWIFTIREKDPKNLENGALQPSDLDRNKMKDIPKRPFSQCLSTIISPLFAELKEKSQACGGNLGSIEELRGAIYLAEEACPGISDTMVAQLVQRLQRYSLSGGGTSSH
UniProt Q15208: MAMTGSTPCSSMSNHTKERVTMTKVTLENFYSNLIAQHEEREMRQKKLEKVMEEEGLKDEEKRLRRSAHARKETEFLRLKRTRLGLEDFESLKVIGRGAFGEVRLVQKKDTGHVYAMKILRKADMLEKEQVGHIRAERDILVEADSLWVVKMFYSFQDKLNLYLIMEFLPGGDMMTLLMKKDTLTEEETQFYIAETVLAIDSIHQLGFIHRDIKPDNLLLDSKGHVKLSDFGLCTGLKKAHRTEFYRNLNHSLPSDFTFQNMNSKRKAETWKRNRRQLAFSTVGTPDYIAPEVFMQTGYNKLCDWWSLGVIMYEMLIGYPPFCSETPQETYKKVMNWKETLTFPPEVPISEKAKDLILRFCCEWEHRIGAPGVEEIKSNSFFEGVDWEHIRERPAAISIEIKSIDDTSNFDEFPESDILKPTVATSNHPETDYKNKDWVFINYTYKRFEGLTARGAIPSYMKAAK
UniProt P42680: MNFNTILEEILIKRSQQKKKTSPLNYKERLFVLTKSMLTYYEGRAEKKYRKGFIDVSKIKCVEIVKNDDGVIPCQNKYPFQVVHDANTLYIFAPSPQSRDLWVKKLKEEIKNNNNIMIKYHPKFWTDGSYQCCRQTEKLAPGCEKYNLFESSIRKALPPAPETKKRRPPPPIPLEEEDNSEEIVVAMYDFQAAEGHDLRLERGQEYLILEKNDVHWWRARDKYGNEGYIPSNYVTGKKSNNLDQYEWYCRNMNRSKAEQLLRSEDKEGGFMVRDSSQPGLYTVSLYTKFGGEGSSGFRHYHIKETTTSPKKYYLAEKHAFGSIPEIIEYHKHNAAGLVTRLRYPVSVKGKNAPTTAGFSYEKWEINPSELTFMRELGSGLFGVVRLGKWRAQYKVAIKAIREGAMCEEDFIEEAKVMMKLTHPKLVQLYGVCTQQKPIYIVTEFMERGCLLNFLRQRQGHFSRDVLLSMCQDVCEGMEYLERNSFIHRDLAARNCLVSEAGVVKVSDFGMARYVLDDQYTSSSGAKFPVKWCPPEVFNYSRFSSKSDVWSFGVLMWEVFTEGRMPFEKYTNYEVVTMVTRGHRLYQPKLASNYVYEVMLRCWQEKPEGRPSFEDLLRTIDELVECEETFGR
UniProt P29597: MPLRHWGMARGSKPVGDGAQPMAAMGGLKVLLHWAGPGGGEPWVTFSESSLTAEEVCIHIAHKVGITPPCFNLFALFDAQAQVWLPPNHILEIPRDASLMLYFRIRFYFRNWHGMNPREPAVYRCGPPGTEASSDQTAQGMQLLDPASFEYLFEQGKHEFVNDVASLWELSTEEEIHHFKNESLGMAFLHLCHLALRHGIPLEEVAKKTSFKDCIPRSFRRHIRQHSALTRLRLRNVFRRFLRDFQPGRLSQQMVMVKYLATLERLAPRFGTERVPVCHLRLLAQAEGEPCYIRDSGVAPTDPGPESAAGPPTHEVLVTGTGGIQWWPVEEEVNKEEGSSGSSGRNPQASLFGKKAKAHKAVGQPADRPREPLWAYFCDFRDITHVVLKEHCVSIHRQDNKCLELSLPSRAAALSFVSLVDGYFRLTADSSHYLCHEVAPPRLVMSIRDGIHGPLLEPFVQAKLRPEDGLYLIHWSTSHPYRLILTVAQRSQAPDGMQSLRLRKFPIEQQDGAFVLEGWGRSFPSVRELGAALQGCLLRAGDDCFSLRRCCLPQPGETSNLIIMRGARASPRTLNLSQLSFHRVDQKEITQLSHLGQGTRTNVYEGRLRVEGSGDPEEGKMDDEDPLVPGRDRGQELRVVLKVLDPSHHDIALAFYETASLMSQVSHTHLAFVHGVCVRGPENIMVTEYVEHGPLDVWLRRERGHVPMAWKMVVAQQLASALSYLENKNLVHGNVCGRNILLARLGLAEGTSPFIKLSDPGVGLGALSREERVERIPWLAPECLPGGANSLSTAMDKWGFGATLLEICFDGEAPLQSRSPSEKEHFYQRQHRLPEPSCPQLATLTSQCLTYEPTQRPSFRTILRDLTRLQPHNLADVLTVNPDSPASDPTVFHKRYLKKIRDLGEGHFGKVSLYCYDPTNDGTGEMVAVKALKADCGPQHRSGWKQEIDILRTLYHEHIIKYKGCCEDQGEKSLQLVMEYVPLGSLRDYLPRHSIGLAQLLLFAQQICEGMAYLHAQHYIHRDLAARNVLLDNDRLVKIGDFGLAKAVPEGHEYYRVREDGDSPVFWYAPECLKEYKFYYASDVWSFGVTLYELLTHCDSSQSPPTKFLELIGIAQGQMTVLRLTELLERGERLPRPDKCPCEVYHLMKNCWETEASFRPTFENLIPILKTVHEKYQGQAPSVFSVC
UniProt Q6PHR2: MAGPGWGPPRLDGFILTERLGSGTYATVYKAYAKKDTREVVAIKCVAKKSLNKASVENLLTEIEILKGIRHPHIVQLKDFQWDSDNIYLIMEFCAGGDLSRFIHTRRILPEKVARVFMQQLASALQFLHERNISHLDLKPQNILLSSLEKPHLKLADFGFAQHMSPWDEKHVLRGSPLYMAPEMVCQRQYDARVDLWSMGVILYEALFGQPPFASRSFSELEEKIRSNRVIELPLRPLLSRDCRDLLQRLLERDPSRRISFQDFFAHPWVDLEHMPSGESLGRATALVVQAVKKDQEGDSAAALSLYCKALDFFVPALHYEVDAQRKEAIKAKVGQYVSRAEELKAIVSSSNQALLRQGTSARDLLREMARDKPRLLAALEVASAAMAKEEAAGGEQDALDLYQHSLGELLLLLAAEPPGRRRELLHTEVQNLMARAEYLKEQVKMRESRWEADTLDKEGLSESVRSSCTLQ
UniProt P07947, whole entry, looked up: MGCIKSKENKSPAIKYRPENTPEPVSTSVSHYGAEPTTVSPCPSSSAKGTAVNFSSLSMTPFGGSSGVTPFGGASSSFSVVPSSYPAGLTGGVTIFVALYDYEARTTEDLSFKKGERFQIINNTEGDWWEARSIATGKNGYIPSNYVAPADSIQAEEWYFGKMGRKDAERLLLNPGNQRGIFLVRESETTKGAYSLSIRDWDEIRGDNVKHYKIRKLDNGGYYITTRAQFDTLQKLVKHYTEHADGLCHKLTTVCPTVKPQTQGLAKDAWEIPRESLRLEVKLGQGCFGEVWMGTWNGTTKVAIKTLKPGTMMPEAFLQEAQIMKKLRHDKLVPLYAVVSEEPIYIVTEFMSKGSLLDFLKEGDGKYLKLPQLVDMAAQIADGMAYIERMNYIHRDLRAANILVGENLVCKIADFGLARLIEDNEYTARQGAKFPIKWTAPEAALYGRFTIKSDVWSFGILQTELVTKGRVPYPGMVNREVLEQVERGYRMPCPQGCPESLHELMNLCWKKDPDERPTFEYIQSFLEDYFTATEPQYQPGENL
UniProt P43403: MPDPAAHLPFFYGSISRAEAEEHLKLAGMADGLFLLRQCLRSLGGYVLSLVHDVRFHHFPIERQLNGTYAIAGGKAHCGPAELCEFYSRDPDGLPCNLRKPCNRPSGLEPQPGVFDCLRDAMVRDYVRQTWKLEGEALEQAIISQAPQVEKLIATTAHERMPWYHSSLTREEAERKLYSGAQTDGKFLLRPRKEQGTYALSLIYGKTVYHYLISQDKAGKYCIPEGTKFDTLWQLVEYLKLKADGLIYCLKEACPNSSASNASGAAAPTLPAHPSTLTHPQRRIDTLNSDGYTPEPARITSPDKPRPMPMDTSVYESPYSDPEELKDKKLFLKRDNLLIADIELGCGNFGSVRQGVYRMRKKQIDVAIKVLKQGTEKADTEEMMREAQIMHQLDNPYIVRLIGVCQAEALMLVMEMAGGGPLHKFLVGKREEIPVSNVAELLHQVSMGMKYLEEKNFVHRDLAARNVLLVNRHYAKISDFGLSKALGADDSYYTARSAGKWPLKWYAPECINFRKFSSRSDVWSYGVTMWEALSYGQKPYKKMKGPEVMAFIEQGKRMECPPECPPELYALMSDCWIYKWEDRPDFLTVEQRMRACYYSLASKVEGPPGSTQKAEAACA
UniProt P11802: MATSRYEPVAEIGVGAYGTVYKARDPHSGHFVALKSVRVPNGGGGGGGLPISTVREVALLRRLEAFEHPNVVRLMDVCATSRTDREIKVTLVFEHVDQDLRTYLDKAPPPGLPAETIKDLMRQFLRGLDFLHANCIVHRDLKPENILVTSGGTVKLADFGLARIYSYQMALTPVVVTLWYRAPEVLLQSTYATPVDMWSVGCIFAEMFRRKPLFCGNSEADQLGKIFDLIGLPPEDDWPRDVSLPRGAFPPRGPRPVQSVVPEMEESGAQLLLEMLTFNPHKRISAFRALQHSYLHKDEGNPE
UniProt P50613: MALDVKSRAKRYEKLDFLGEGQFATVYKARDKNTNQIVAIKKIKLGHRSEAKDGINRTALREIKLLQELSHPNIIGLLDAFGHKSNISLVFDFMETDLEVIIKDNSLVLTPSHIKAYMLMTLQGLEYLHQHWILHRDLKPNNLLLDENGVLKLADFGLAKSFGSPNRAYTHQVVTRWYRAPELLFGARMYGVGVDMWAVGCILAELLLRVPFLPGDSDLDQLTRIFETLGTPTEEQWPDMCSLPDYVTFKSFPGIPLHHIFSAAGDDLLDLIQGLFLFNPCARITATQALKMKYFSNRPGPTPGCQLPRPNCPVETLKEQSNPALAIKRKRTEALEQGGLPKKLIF
UniProt P50750, whole entry: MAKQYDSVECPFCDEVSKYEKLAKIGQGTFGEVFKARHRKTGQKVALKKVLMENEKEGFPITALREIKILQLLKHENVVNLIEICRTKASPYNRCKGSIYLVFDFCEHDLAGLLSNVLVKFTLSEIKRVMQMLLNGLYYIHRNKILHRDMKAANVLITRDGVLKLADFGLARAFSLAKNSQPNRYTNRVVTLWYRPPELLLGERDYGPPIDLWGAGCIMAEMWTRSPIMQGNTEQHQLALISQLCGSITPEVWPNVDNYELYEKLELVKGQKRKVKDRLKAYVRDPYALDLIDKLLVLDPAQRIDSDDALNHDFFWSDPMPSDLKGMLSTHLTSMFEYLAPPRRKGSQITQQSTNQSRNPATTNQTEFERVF

Assays:
Conditions in all cases: K562; 2-18 h
[1] = molecular target: ROR2 (UniProt Q01974); assay: number of time points (of 5) at which kinase-Nluc abundance scored as decreased, DMSO-normalised (count); higher = more persistent destabilization
[2] = molecular target: RPS6KA1 (UniProt Q15418); assay: as above
[3] = molecular target: SPHK1 (UniProt Q9NYA1); assay: as above
[4] = molecular target: SRC (UniProt P12931); assay: as above
[5] = molecular target: STK24 (UniProt Q9Y6E0); assay: as above
[6] = molecular target: STK38 (UniProt Q15208); assay: as above
[7] = molecular target: SYK (UniProt P43405); assay: as above
[8] = molecular target: TEC (UniProt P42680); assay: as above
[9] = molecular target: TYK2 (UniProt P29597); assay: as above
[10] = molecular target: ULK3 (UniProt Q6PHR2); assay: as above
[11] = molecular target: YES1 (UniProt P07947); assay: as above
[12] = molecular target: ZAK (UniProt Q9NYL2); assay: as above
[13] = molecular target: ZAP70 (UniProt P43403); assay: as above
[14] = molecular target: CDK4 (UniProt P11802); assay: number of time points (of 4; 2 h point missing) at which kinase-Nluc abundance scored as decreased, DMSO-normalised (count); higher = more persistent destabilization
[15] = molecular target: CDK7 (UniProt P50613); assay: as above
[16] = molecular target: CDK9 (UniProt P50750); assay: as above

Measured: number of time points

Cc1c(C)c(NCC(=O)N(C)C2CCN(Cc3ccc(C(N)=O)cc3)CC2)c(C)c(C)c1N (10 µM)
0: all assays above

CC1=C(C(=O)Nc2cc3cn[nH]c3cc2F)C(c2ccc(C(F)(F)F)cc2)CC(=O)N1 (centres undefined) (10 µM)
0: all assays above

Cc1ccc(C)c(OCCn2cc(C(=O)O)c3ccccc32)c1 (10 µM)
0: all assays above

Quoted at random: two records from the list
Cc1ccc(C)c(OCCn2cc(C(=O)O)c3ccccc32)c1 (10 µM)
0: all assays above

Cc1c(C)c(NCC(=O)N(C)C2CCN(Cc3ccc(C(N)=O)cc3)CC2)c(C)c(C)c1N (10 µM)
0: all assays above

Next part.

O=C(ON=C1c2ccccc2-c2nc3ccccc3nc21)c1ccco1 (2.5 µM)
0: all assays above

Cc1cnc(NC(=O)c2cc(Oc3cnc(C(=O)N(C)C)nc3)c3cc(C)oc3c2)cn1 (10 µM)
0: all assays above

O=c1c2c([nH]n1-c1nc3ccccc3s1)CCCC2 (10 µM)
0: all assays above

O=C(NCCN1CCOCC1)Nc1nc2ccc(Sc3nnc4ccc(-c5ccc(F)cc5)nn34)cc2s1 (10 µM)
1: [16]
0: all other assays above

O=c1cc(-c2ccccc2)oc2cc(O[C@@H]3O[C@H](CO[C@@H]4O[C@H](CO)[C@@H](O)[C@H](O)[C@H]4O)[C@@H](O)[C@H](O)[C@H]3O)c(O)c(O)c12 [Oroxin B] (10 µM)
0: all assays above

O=C1OC(/C=C/c2ccccc2)=NC/1=C\c1cccnc1 (10 µM)
0: all assays above

O=C(Nc1cccc(-c2nc(-c3ccc(NC(=O)c4cccnc4)cc3Cl)no2)c1)Nc1ccc(NC(=O)C2CC2)c(C(F)(F)F)c1 (2.5 µM)
0: all assays above

COc1c(O)cc2oc(-c3ccc(O)cc3)cc(=O)c2c1O [Hispidulin] (10 µM)
1: [10]
0: all other assays above

NC[C@@](O)(c1ccc(Cl)cc1)c1ccc(-c2cn[nH]c2)cc1 (10 µM)
1: [16]
0: all other assays above

COCCOc1ccc2c(c1)ncn2-c1ccc2cccc(N3CCC(N)CC3)c2n1 (10 µM)
1: [11]
3: [8] | [15]
4: [10]
2: [9]
0: all other assays above

Cc1cc(-n2c(=O)ccc3c[nH]c4nccc-4c32)ccc1F (10 µM)
0: all assays above

N#Cc1ccc2ncnc(NCCc3ccccc3)c2c1 [Senexin A] (10 µM)
0: all assays above

Cc1cc(CSc2ccccc2C(=O)NCCNc2ccc(C(F)(F)F)cc2[N+](=O)[O-])on1 (10 µM)
0: all assays above

COC(=O)/C=C/c1ccccc1 [Methyl cinnamate] (10 µM)
0: all assays above

C=CC(=O)Nc1cccc(Oc2nc(Nc3ccc(N4CCN(C)CC4)c(F)c3)nc3[nH]ccc23)c1 [Avitinib (maleate)] (2.5 µM)
0: all assays above

N[C@@H]1CCCN(c2c(/C=C3\SC(=O)NC3=O)cccc2-c2ccccc2)C1 (10 µM)
0: all assays above

COc1cc(-c2cc(OP(=O)(O)O)cc(-c3cc(OC)c(OC)c(OC)c3)c2)cc(OC)c1OC [Stafia-1] (10 µM)
0: all assays above

Cc1c(C(=O)Nc2ccc(Oc3ccnc4[nH]cc(-c5ccccc5)c34)c(F)c2)c(=O)n(-c2ccc(F)cc2)n1C (10 µM)
1: [9] | [15]
0: all other assays above

COc1cc(N2CCC(N3CCN(C)CC3)CC2)ccc1Nc1ncc(Cl)c(-c2c[nH]c3ccccc23)n1 (2.5 µM)
0: all assays above

O=C1Nc2ccc(CN3C(=O)CSC3=O)cc2/C1=C/c1cc(CN2CCOCC2)c[nH]1 (10 µM)
1: [3]
0: all other assays above

CNC(=O)c1ccc2c(c1)ncn2-c1ccc(CC(=O)OC(C)(C)C)cc1 (10 µM)
0: all assays above

O=C1Nc2ccc(I)cc2/C1=C/c1cc(Br)c(O)c(Br)c1 (10 µM)
1: [9] | [14] | [15]
4: [3] | [16]
0: all other assays above

COc1ccc(S(=O)(=O)Nc2cc(-c3c(O)ccc4ccccc34)c(O)c3ccccc23)cc1 (10 µM)
0: all assays above

CO[C@H]1CC[C@H](N2C(=O)CNc3ncc(-c4ccc(C(C)(C)O)nc4)nc32)CC1 (2.5 µM)
0: all assays above

C=CC(=O)N1CCN(C(=O)CNc2cc(I)c(Cl)cc2O)CC1 [K-Ras(G12C) inhibitor 12] (10 µM)
3: [10]
0: all other assays above

CC(O)(C#Cc1ccc2c(c1)N(c1nc(N)ncc1Cl)CC2)c1nccs1 (centres undefined) (2.5 µM)
0: all assays above
